Laboratory results published in patent US9375005B2, “5-halogenopyrazole indanyl carboxamides” (BAYER CROPSCIENCE AG, priority 2012, dated 2016).

Test: Measurement of log P values by HPLC on reversed phase columns (EEC directive 79/831 Annex V.A8)
Assay type: physicochemical
Settings: method marked [a]

SMILES | logP
CC1CC(C)c2c(NC(=O)c3c(C(F)F)nn(C)c3Cl)cccc21 (centres unmarked) [Example 43] | 3.89[a]
CC1CC(C)c2c(NC(=O)c3c(C(F)F)nn(C)c3Cl)cccc21 (centres unmarked) [Example 96] | 3.69[a]
